The values below come from paper PMC6818353.

The chains are these.
B1: RING1 and YY1 binding protein (RYBP), ribosome-displayed ORF (protein, UniProt Q8N488 1-228)
chain: MTMGDKKSPTRPKRQAKPAADEGFWDCSVCTFRNSAEAFKCSICDVRKGTSTRKPRINSQLVAQQVAQQYATPPPPKKEKKEKVEKQDKEKPEKDKEISPSVTKKNTNKKTKPKSDILKDPPSEANSIQSANATTKTSETNHTSRPRLKNVDRSTAQQLAVTVGNVTVIITDFKEKTRSSSTSSSTVTSSAGSEQQNQSSSGSESTDKGSSRSSTPKGDMSAVNDESF
B2: C11orf46, ribosome-displayed ORF (protein, UniProt Q8N8R7 1-260)
chain: MMDPCSVGVQLRTTNECHKTYYTRHTGFKTLQELSSNDMLLLQLRTGMTLSGNNTICFHHVKIYIDRFEDLQKSCCDPFNIHKKLAKKNLHVIDLDDATFLSAKFGRQLVPGWKLCPKCTQIINGSVDVDTEDRQKRKPESDGRTAKALRSLQFTNPGRQTEFAPETGKREKRRLTKNATAGSDRQVIPAKSKVYDSQGLLIFSGMDLCDCLDEDCLGCFYACPACGSTKCGAECRCDRKWLYEQIEIEGGEIIHNKHAG
B3: inhibitor growth of protein 2 (ING2), ribosome-displayed ORF (protein, UniProt Q9H160 1-280)
chain: MLGQQQQQLYSSAALLTGERSRLLTCYVQDYLECVESLPHDMQRNVSVLRELDNKYQETLKEIDDVYEKYKKEDDLNQKKRLQQLLQRALINSQELGDEKIQIVTQMLELVENRARQMELHSQCFQDPAESERASDKAKMDSSQPERSSRRPRRQRTSESRDLCHMANGIEDCDDQPPKEKKSKSAKKKKRSKAKQEREASPVEFAIDPNEPTYCLCNQVSYGEMIGCDNEQCPIEWFHFSCVSLTYKPKGKWYCPKCRGDNEKTMDKSTEKTKKDRRSR
B4: coiled-coil domain containing 124 (CCDC124), ribosome-displayed ORF (protein, UniProt Q96CT7 1-223)
chain: MPKKFQGENTKSAAARARRAEAKAAADAKKQKELEDAYWKDDDKHVMRKEQRKEEKEKRRLDQLERKKETQRLLEEEDSKLKGGKAPRVATSSKVTRAQIEDTLRRDHQLREAPDTAEKAKSHLEVPLEENVNRRVLEEGSVEARTIEDAIAVLSVAEEAADRHPERRMRAAFTAFEEAQLPRLKQENPNMRLSQLKQLLKKEWLRSPDNPMNQRAVPFNAPK
B5: Myc- or Flag-tagged RYBP expressed in HEK293T cells (protein, UniProt Q8N488 1-228)
chain: B1 chain
B6: Myc- or Flag-tagged ING2 expressed in HEK293T cells (protein, UniProt Q9H160 1-280)
chain: B3 chain
B7: Myc- or Flag-tagged CCDC124 expressed in HEK293T cells (protein, UniProt Q96CT7 1-223)
chain: B4 chain

Results are given in words; binding and its absence hold for the method and conditions named. Binding calls can cover weak binding; strength is not graded here. For some of these results: In cells and extracts the contact can be indirect. For some of these results: Tags and fused reporters may be left off the sequences shown.

The target in one assay is V5-His6-tagged Zika virus NS5 protein (Zika virus (PRVABC59 strain)). The assay can be described thus: PLATO-BC (ribosome display of the barcoded human ORFeome, affinity enrichment, barcode sequencing).
Take B1: the binding result is reported as “binds”.

On to B2, for which the binding result is “binds”.

B3: the binding result is recorded as “binds”.

On to B4, for which the binding result is on record as “binds”.

Another assay shares this target. The assay can be described thus: co-IP.
Regarding B5, the binding entry is “binds”.

In the case of B6, the binding result is given as “binds”.

Take B7: the binding result is recorded as “binds”.
